# Measurements as given in the supplement of paper PMC8426693.
# This is one part of the list. Many values rest on one well or one pass, so single values are uncertain.
# Tests used:
# Details in all cases: RNA concentration 10 µM; fragment concentration 200 µM; 293 K
# SARS-CoV-2 5_SL5b+c RNA [1] = test: 1H chemical shift perturbation upon RNA addition; higher = stronger binding
# SARS-CoV-2 5_SL7 RNA = test: as above
# SARS-CoV-2 5_SL8 RNA = test: as above
# SARS-CoV-2 3_SL1 RNA = test: waterLOGSY factor (bound vs free ligand) (ratio); higher = stronger binding
# SARS-CoV-2 3_SL2 RNA = test: as above
# SARS-CoV-2 5_SL1234 RNA = test: as above
# SARS-CoV-2 5_SL4 RNA = test: as above
# SARS-CoV-2 5_SL5b+c RNA [2] = test: as above
# SARS-CoV-2 3'-UTR RNA = test: as above
# SARS-CoV-2 3_SL3base RNA = test: as above
# SARS-CoV-2 5'-UTR RNA = test: as above
# SARS-CoV-2 3_SL1+2 RNA = test: as above
# SARS-CoV-2 5_SL5 RNA = test: as above
# SARS-CoV-2 3_s2m RNA = test: as above
# SARS-CoV-2 5_SL1 RNA = test: as above
smiles,measurement,setting,value
CN(C)c1ccc(C(=O)Nc2ccncc2)cc1,1H chemical shift perturbation upon RNA addition,SARS-CoV-2 5_SL5b+c RNA [1],15 Hz
same,1H chemical shift perturbation upon RNA addition,SARS-CoV-2 5_SL7 RNA,14 Hz
same,1H chemical shift perturbation upon RNA addition,SARS-CoV-2 5_SL8 RNA,11.1 Hz
same,waterLOGSY factor,SARS-CoV-2 3_SL1 RNA,1.5
same,waterLOGSY factor,SARS-CoV-2 3_SL2 RNA,0.843
same,waterLOGSY factor,SARS-CoV-2 5_SL1234 RNA,1.98
same,waterLOGSY factor,SARS-CoV-2 5_SL4 RNA,0.92
same,waterLOGSY factor,SARS-CoV-2 5_SL5b+c RNA [2],0.03
COC(=O)Nc1nc2c(C)cccc2s1,waterLOGSY factor,SARS-CoV-2 3_SL1 RNA,1.36
O=C(Nc1ccc(O)cc1)c1ccc(Cl)cc1,waterLOGSY factor,SARS-CoV-2 3'-UTR RNA,3.2
same,waterLOGSY factor,SARS-CoV-2 3_SL3base RNA,1.82
same,waterLOGSY factor,SARS-CoV-2 5'-UTR RNA,3.94
CNCc1ccc(C(F)(F)F)cc1,waterLOGSY factor,SARS-CoV-2 3_SL1+2 RNA,0.74
same,waterLOGSY factor,SARS-CoV-2 3_SL3base RNA,0.97
NC(=O)c1ccnc(NC2CC=CC2)c1,waterLOGSY factor,SARS-CoV-2 3'-UTR RNA,1.26
same,waterLOGSY factor,SARS-CoV-2 3_SL1+2 RNA,1.22
same,waterLOGSY factor,SARS-CoV-2 5_SL4 RNA,0.93
same,waterLOGSY factor,SARS-CoV-2 5_SL5 RNA,1.34
CNC(=O)c1nc2ccccc2c(=O)[nH]1,waterLOGSY factor,SARS-CoV-2 3'-UTR RNA,0.51
same,waterLOGSY factor,SARS-CoV-2 5'-UTR RNA,1.66
c1cnc(N2CCC3(CCOC3)C2)cn1 (centres undefined),waterLOGSY factor,SARS-CoV-2 3'-UTR RNA,1.27
CCNCc1cccc2[nH]ccc12,waterLOGSY factor,SARS-CoV-2 5'-UTR RNA,1.83
Cc1cc(N2CCNCC2)nc(C)n1,waterLOGSY factor,SARS-CoV-2 5'-UTR RNA,1.71
COc1ccc(C(=O)Nc2ccccc2F)cc1,waterLOGSY factor,SARS-CoV-2 3'-UTR RNA,1.06
c1coc(CNc2nc3ccccc3[nH]2)c1,waterLOGSY factor,SARS-CoV-2 3_SL1+2 RNA,1.25
same,waterLOGSY factor,SARS-CoV-2 3_SL3base RNA,1.81
same,waterLOGSY factor,SARS-CoV-2 5'-UTR RNA,3.78
CNCC(=O)Nc1cc(C)ccn1,waterLOGSY factor,SARS-CoV-2 3'-UTR RNA,1.8
same,waterLOGSY factor,SARS-CoV-2 3_SL3base RNA,1.28
same,waterLOGSY factor,SARS-CoV-2 5'-UTR RNA,2.77
CC(N)c1ccc(-c2cncnc2)cc1 (centres undefined),waterLOGSY factor,SARS-CoV-2 3'-UTR RNA,1.25
same,waterLOGSY factor,SARS-CoV-2 5'-UTR RNA,3.11
CCOC(=O)c1cc(-c2ccc(C)cc2)no1,waterLOGSY factor,SARS-CoV-2 3'-UTR RNA,2.3
c1nc(N2CCC2)c2[nH]cnc2n1,waterLOGSY factor,SARS-CoV-2 3'-UTR RNA,1.53
same,waterLOGSY factor,SARS-CoV-2 5'-UTR RNA,1.11
CC(=O)Nc1ccc2[nH]c(=O)[nH]c2c1,waterLOGSY factor,SARS-CoV-2 3'-UTR RNA,2.69
COc1ccc(NC(=O)CN)cc1,waterLOGSY factor,SARS-CoV-2 5'-UTR RNA,1.42
CNC(=O)Nc1nc2ccc(OC)cc2s1,waterLOGSY factor,SARS-CoV-2 3_s2m RNA,0.875
same,waterLOGSY factor,SARS-CoV-2 5_SL1 RNA,0.421
same,waterLOGSY factor,SARS-CoV-2 5_SL1234 RNA,1.12
same,waterLOGSY factor,SARS-CoV-2 5_SL4 RNA,0.65
Cc1cc2ncn(CC(N)=O)c2cc1C,waterLOGSY factor,SARS-CoV-2 3'-UTR RNA,1.61
Cc1cc(C(=O)Nc2ccc3[nH]ccc3c2)no1,waterLOGSY factor,SARS-CoV-2 3'-UTR RNA,1.6
same,waterLOGSY factor,SARS-CoV-2 3_SL3base RNA,1.11
c1ccc(CCNc2nc3ccccc3[nH]2)cc1,waterLOGSY factor,SARS-CoV-2 3'-UTR RNA,2.21
same,waterLOGSY factor,SARS-CoV-2 5'-UTR RNA,2.77
COc1ccc(NC(=O)Nc2cccs2)cn1,waterLOGSY factor,SARS-CoV-2 3'-UTR RNA,1.41
O=C(OCc1ccc(Cl)cc1)c1cccnc1,waterLOGSY factor,SARS-CoV-2 3'-UTR RNA,1.19
same,waterLOGSY factor,SARS-CoV-2 5'-UTR RNA,0.797
CC(=O)Nc1ccncc1C,waterLOGSY factor,SARS-CoV-2 3'-UTR RNA,1.48
O=C(Nc1ccc2[nH]c(=O)[nH]c2c1)c1ccco1,waterLOGSY factor,SARS-CoV-2 3'-UTR RNA,2.02
same,waterLOGSY factor,SARS-CoV-2 3_SL3base RNA,1.87
same,waterLOGSY factor,SARS-CoV-2 5'-UTR RNA,3.02
Cc1c(Cl)cccc1NC(=O)CN.Cl,waterLOGSY factor,SARS-CoV-2 5'-UTR RNA,2.31
OCc1ccc(-n2cnc3ccccc32)cc1,waterLOGSY factor,SARS-CoV-2 3'-UTR RNA,1.35
same,waterLOGSY factor,SARS-CoV-2 5'-UTR RNA,1.52
Cc1ccccc1OCC(=O)Nc1ncccn1,waterLOGSY factor,SARS-CoV-2 5'-UTR RNA,1.59
Oc1ccc(CN2CCCC2)c2cccnc12,waterLOGSY factor,SARS-CoV-2 3'-UTR RNA,1.35
same,waterLOGSY factor,SARS-CoV-2 3_SL3base RNA,1.3
same,waterLOGSY factor,SARS-CoV-2 5'-UTR RNA,1.15
CCc1nc(-c2ccc(Cl)cc2)no1,waterLOGSY factor,SARS-CoV-2 3'-UTR RNA,1.72
CC(C)NC(=O)c1ccc2ccccc2n1,waterLOGSY factor,SARS-CoV-2 3'-UTR RNA,0.586
Cc1ccc(Nc2ncnc3[nH]ncc23)cc1,waterLOGSY factor,SARS-CoV-2 3'-UTR RNA,4.03
CNc1nccc(OC)n1,waterLOGSY factor,SARS-CoV-2 3'-UTR RNA,1.81

# 2 entries from above, tab-delimited.
smiles	measurement	setting	value
CNC(=O)Nc1nc2ccc(OC)cc2s1	waterLOGSY factor	SARS-CoV-2 5_SL1 RNA	0.421
same	waterLOGSY factor	SARS-CoV-2 5_SL1234 RNA	1.12

# Shown with bars between the fields: part of the list above
smiles | measurement | setting | value
CNCc1ccc(C(F)(F)F)cc1 | waterLOGSY factor | SARS-CoV-2 3_SL1+2 RNA | 0.74
Cc1c(Cl)cccc1NC(=O)CN.Cl | waterLOGSY factor | SARS-CoV-2 5'-UTR RNA | 2.31
